Where two headings read alike, the source gives them in different places.
Legend:
[1] = healthy subjects; for CL/F: fasted, mean ± SD, n = 14
clinical = conditions: human, in vivo

COC(=O)C1=C(C)NC(C)=C(C(=O)OC)C1c1ccccc1[N+](=O)[O-] [Nifedipine, nifedipine]
Change of plasma concentration profile and pharmacokinetic parameters with concomitant LipoCol Forte ([1]; 5 mg nifedipine with or without one LipoCol Forte capsule): not significantly changed
CL/F ([1]; single 5 mg nifedipine capsule alone): 40.2 ± 14.9 L/h
CL/F ([1]; single 5 mg nifedipine capsule with 600 mg LipoCol Forte capsule): 37.3 ± 9.9 L/h
Tmax (clinical): 33 ± 25.8 min
Vd/F (clinical): 187 ± 69.9 L
AUC(0-inf) (clinical; 5 mg): 136 ± 38.2 ng·h/mL
AUC(0-t) (clinical; 5 mg): 132 ± 37 ng·h/mL
MRT (clinical; 5 mg): 221 ± 35.4 min
Tmax (clinical; 5 mg): 27.6 ± 9 min
Vd/F (clinical; 5 mg): 201 ± 56.1 L

From paper PMC3513969 (Evidence-based Complementary and Alternative Medicine : eCAM, 2012)
